Library screen at single concentrations

Sequences of proteins named here, by UniProt entry; tags and fusion partners are left off. Residues count along the entry.
UniProt Q8IDJ8, 1-583: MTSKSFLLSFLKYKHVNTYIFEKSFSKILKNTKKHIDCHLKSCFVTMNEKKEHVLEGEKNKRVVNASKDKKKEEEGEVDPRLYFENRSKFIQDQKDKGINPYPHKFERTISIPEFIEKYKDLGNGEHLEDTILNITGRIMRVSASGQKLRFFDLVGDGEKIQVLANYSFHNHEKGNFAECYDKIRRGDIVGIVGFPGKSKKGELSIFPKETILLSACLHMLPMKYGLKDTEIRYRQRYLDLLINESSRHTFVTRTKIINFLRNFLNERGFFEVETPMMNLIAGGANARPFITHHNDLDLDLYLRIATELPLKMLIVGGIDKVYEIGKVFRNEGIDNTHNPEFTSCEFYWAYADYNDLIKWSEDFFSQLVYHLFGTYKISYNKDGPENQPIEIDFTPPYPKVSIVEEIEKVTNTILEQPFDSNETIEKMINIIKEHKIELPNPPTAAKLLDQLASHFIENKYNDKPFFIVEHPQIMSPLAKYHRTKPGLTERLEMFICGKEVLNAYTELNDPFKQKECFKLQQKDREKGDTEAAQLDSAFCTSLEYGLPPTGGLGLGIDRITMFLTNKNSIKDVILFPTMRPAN

From ChEMBL document CHEMBL3988442, “University of Dundee, Small-Polar-MMV Screening Library” (2021).

The filed quantity is “Percent Effect” (%). The record does not define 0% and 100%; most values in the screen are far below 50% and negative numbers occur (in some assays of this library far below -100). The compounds are a random part of those screened.

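Lysine-tRNA ligase, Plasmodium falciparum 3D7 (UniProt Q8IDJ8). Enzyme assay of the cytosolic lysyl-tRNA synthetase in 384-well plates, read by luminescence. Concentration: 30 µM. Direction is inferred from only a few compounds that gave an IC50; most scored high, so higher reads as stronger inhibition. Of about 69,000 compounds tested this way, about 49 (0.071%) reached 50% or more in at least one test.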

{"compound": "O=C(c1ccco1)N1C[C@@H]2CCN(c3cccnc3)C[C@@H]2C1", "percent effect": -0.2322}
{"compound": "CS(=O)(=O)CCC(=O)N(CCc1cccc(F)c1)C1CC1", "percent effect": 3.933}
{"compound": "CCc1ccccc1OC1CN(CC2CCOC2)C1", "stereo": "stereo not shown", "percent effect": 0.2027}
{"compound": "O=C(CCC1CCCC1)NCCn1nc(C2CCNC2)c2cccnc21", "stereo": "stereo not shown", "percent effect": -0.2502}
{"compound": "COc1c(C)cnc(CNC(=O)c2cnc3onc(C)c3c2)c1C", "percent effect": 4.443}
{"compound": "c1nc2c(c(NC3CCC3)n1)CCNCC2", "percent effect": 14.15}
{"compound": "O=C(NCc1ccoc1)NC1CCN(c2ncccn2)CC1", "percent effect": 3.29}
{"compound": "O=S(=O)(NCCn1ccc(-c2ccccn2)n1)C1CC1", "percent effect": 2.205}
{"compound": "O=C(CN1CCCC(c2ccn[nH]2)C1)N1CCCc2ccccc21", "stereo": "stereo not shown", "percent effect": -4.249}
{"compound": "CCN(CC)CCNCC1CCOC(C)(C)C1", "stereo": "stereo not shown", "percent effect": 3.771}
{"compound": "Cc1cn2nc(N3CCCN(Cc4noc(C)n4)CC3)sc2n1", "percent effect": -1.815}
{"compound": "Cc1cn2nc(N3CCCCC3Cn3cccn3)sc2n1", "stereo": "stereo not shown", "percent effect": -1.568}
{"compound": "CCOc1ccc(CN2CC[C@H]3CC[C@@H](C2)N3)cc1CO", "percent effect": 3.637}
{"compound": "O=C(C1CCN(c2ncnc3cccc(F)c23)CC1)N1CCCC1", "percent effect": -1.125}
{"compound": "Cc1nc(C2CCCN2C(=O)c2ccc(N(C)C)nn2)no1", "stereo": "stereo not shown", "percent effect": -3.08}
{"compound": "CC(CNC(=O)c1ccc(Cl)cc1I)N1CCCC1", "stereo": "stereo not shown", "percent effect": 1.318}
{"compound": "COCCC(=O)N1C[C@@H]2COC[C@]2(COCc2cccnc2)C1", "percent effect": 8.845}
{"compound": "CCOC(=O)c1sc(NC(=O)c2cc(=O)c(OC)c[nH]2)nc1C", "percent effect": 6.789}
{"compound": "O=S(=O)(c1ccccc1)N1CCN(Cc2ccc(F)cc2Br)CC1", "percent effect": 0.7532}
{"compound": "COc1cccc(CNC(=O)CN2CCCC(Cn3cncn3)C2)c1", "stereo": "stereo not shown", "percent effect": 1.08}
{"compound": "Cc1occc1C(=O)N1CCn2c(COCC3CC3)cnc2C1C", "stereo": "stereo not shown", "percent effect": 6.939}
{"compound": "Cc1noc(C)c1CN1CCOC2(CCCN(c3nccs3)C2)C1", "stereo": "stereo not shown", "percent effect": -2.943}
{"compound": "Cn1nnc2c1CCN(Cc1ccco1)C2COCc1ccccc1", "stereo": "stereo not shown", "percent effect": -0.8241}
{"compound": "CNC(=O)NC(=O)CCN1CCN(c2nccs2)CC1", "percent effect": 0.09842}
{"compound": "Cn1cc(C2(C)CN(Cc3ccc(N4CCCC4)nc3)CCO2)cn1", "stereo": "stereo not shown", "percent effect": 2.92}
{"compound": "CCN(CC1CCCN(CCc2cccc(OC)c2)C1)C(=O)CO", "stereo": "stereo not shown", "percent effect": 7.276}
{"compound": "COc1cc(N2C[C@H]3CCC[C@@H](CN(C)C)[C@H]3C2)ncn1", "percent effect": 7.33}
{"compound": "CCN(CC)CC1CN(Cc2ccc(C)s2)Cc2nccn2C1", "stereo": "stereo not shown", "percent effect": 9.709}
{"compound": "Cc1cc(C(=O)N2CCn3cc(CN4CCCC4)nc3C2)no1", "percent effect": 2.306}
{"compound": "COc1ccc(OC)c(CNC(=O)N2CCC(n3cncn3)CC2)c1", "percent effect": -2.7}
{"compound": "O=C(c1cn(CC(=O)N2CCCC2)c2ccccc12)C1CC1", "percent effect": 2.344}
{"compound": "Cc1ccc(NC2CCN(C(=O)c3cc(C)no3)CC2)nn1", "percent effect": 2.535}
{"compound": "O=c1oc(-c2ccc(F)cc2)nn1CN1CCN(CC2CC2)CC1", "percent effect": 0.8825}
{"compound": "CCc1ocnc1C(=O)N1CCOC(c2nc(C)n[nH]2)C1", "stereo": "stereo not shown", "percent effect": -0.02018}
{"compound": "OCC1(CNC2CCc3cc4c(cc32)OCCO4)CC1", "stereo": "stereo not shown", "percent effect": 0.5199}
{"compound": "CN1C(=O)C2(CCN(C(=O)c3cccnc3)CC2)c2cccc(F)c21", "percent effect": 2.283}
{"compound": "CCOC(=O)C1CCN(C(=O)Cn2ccc3cc(Br)ccc32)CC1", "percent effect": 2.507}
{"compound": "FC(F)(F)c1ccc2nc([C@H]3CCN(C4CCCCC4)C3)[nH]c2c1", "percent effect": 6.959}
{"compound": "CCOc1ccc(Cl)cc1CCNC(=O)c1ccc(=O)n(C)c1", "percent effect": 3.461}
{"compound": "CN1CCC(c2cccc(C(=O)N(C)C)n2)CC1", "percent effect": 1.032}
{"compound": "COc1ccc(-n2nnc(C(=O)NCC3CCCCC3)n2)cc1", "percent effect": 23.17}
{"compound": "O=C(CCN1CCCCO1)NC1CCCN(CC2CCCCC2)C1", "stereo": "stereo not shown", "percent effect": -0.058}
{"compound": "O=C(C1CCC1)N1CCCn2nc(CNc3ncccn3)cc2C1", "percent effect": 4.784}
{"compound": "CN1[C@H]2CC[C@@H]1CN(c1nc(-c3ccncc3)nc3c1cnn3C)CC2", "percent effect": 3.149}
{"compound": "CC(=O)Nc1ncc(S(=O)(=O)N2CCC(C)CC2)s1", "percent effect": 2.516}
{"compound": "N#Cc1cc(NC(=O)c2cscn2)ccc1N1CCC(O)CC1", "percent effect": 12.12}
{"compound": "CC(C)CNC(=O)[C@H]1C[C@@H]2CN(C(=O)NCC3CCCCC3)C[C@H]1O2", "percent effect": 10.72}
{"compound": "O=C1CC(C(=O)Nc2nnc(-c3ccccn3)[nH]2)c2ccccc2N1", "stereo": "stereo not shown", "percent effect": 4.734}
{"compound": "CCc1nccn1-c1cccc(C2CCCN2)n1", "stereo": "stereo not shown", "percent effect": 3.433}
{"compound": "O=C(CCn1cncn1)NCC1CCOC1", "stereo": "stereo not shown", "percent effect": 5.229}
{"compound": "COc1ccc(CCC(=O)N2CCNCC2C(=O)N2CCCC2)cc1", "stereo": "stereo not shown", "percent effect": 0.6986}
{"compound": "NC1(C(=O)NCCC2CN(Cc3ccco3)CCO2)CCCC1", "stereo": "stereo not shown", "percent effect": -2.248}
{"compound": "COCc1cccc(CNc2cnn(C(C)(C)C)c(=O)c2Cl)c1", "percent effect": 9.643}
{"compound": "O=C(C[C@@H]1COC[C@H]2CN(C(=O)c3cccnc3)C[C@@H]12)N1CCOCC1", "percent effect": -15.64}

Once more, the final 4:

{"compound": "COc1ccc(CCC(=O)N2CCNCC2C(=O)N2CCCC2)cc1", "stereo": "stereo not shown", "percent effect": 0.6986}
{"compound": "NC1(C(=O)NCCC2CN(Cc3ccco3)CCO2)CCCC1", "stereo": "stereo not shown", "percent effect": -2.248}
{"compound": "COCc1cccc(CNc2cnn(C(C)(C)C)c(=O)c2Cl)c1", "percent effect": 9.643}
{"compound": "O=C(C[C@@H]1COC[C@H]2CN(C(=O)c3cccnc3)C[C@@H]12)N1CCOCC1", "percent effect": -15.64}